According to the supplement of paper PMC6411743:
± gives the standard deviation of the averaged measurements. Some of the results follow.

By UniProt entry, the sequences of proteins in these tests, tags left out. Where a name states a change or a piece, a line headed by the entry shows the natural chain unless it says otherwise.
UniProt Q8N6G5: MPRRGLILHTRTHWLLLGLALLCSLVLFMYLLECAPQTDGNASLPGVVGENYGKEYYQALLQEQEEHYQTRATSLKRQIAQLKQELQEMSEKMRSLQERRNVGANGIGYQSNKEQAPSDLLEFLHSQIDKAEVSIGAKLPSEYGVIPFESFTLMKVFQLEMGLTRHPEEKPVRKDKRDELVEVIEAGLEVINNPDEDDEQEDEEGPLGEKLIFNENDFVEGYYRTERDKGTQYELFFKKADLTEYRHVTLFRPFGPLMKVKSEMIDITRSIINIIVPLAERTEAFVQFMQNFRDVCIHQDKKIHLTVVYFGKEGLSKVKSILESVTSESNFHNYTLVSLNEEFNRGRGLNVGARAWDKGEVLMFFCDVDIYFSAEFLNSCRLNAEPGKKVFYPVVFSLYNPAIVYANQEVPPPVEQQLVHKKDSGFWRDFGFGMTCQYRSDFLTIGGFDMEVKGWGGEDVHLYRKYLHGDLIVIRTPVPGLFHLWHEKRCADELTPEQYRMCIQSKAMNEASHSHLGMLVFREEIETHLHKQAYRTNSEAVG
UniProt Q8IVS2: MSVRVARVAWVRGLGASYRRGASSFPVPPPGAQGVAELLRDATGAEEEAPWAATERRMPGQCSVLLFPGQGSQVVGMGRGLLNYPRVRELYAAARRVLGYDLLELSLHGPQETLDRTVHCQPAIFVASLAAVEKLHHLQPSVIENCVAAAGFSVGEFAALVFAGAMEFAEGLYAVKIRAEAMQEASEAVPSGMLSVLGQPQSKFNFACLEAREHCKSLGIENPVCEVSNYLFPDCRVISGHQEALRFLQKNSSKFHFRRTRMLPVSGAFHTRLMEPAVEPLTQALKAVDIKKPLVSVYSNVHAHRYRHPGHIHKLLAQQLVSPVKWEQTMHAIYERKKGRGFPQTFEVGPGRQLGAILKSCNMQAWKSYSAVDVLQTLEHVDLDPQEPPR
UniProt Q8NEC7: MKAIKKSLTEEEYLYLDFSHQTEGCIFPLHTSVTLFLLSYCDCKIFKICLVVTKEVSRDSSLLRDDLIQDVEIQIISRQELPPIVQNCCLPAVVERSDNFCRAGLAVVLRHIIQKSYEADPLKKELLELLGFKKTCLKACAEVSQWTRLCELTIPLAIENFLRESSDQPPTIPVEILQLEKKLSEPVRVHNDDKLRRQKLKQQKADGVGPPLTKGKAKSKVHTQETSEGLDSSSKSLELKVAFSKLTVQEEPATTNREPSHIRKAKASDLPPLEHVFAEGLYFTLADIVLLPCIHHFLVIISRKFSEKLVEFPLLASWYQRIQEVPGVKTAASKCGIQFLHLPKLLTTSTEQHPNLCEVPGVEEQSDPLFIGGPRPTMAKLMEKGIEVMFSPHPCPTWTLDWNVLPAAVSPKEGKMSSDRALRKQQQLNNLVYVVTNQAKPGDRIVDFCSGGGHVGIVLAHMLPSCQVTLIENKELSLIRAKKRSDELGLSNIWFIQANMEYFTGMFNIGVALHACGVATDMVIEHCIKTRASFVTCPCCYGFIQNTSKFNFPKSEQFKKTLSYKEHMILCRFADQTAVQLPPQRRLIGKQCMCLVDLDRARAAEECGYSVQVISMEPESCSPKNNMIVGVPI
UniProt Q8TEH3: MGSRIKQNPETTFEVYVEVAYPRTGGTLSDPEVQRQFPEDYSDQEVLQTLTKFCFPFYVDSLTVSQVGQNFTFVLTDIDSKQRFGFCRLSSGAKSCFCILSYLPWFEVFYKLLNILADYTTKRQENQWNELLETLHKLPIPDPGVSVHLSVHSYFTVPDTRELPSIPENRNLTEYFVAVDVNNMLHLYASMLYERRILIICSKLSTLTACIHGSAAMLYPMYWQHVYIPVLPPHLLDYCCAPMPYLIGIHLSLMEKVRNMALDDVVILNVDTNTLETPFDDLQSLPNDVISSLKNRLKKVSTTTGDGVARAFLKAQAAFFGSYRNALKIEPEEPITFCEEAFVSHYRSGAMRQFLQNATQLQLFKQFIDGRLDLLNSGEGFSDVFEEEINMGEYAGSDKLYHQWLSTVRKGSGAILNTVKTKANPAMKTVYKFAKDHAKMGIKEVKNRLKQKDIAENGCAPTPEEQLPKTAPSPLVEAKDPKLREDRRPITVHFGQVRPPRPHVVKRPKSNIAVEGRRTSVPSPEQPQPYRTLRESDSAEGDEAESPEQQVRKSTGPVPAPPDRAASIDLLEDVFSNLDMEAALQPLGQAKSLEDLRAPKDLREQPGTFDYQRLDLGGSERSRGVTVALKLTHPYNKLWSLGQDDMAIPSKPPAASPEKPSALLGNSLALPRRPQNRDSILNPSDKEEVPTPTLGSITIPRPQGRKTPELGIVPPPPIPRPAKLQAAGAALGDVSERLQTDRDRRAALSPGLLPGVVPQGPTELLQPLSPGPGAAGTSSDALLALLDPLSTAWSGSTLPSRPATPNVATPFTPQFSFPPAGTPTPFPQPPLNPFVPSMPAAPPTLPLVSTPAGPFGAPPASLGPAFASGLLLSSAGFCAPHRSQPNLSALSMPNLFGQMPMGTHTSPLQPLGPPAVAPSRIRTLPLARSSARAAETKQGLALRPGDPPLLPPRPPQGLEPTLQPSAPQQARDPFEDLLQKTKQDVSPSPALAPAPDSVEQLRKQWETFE
UniProt Q8IX12: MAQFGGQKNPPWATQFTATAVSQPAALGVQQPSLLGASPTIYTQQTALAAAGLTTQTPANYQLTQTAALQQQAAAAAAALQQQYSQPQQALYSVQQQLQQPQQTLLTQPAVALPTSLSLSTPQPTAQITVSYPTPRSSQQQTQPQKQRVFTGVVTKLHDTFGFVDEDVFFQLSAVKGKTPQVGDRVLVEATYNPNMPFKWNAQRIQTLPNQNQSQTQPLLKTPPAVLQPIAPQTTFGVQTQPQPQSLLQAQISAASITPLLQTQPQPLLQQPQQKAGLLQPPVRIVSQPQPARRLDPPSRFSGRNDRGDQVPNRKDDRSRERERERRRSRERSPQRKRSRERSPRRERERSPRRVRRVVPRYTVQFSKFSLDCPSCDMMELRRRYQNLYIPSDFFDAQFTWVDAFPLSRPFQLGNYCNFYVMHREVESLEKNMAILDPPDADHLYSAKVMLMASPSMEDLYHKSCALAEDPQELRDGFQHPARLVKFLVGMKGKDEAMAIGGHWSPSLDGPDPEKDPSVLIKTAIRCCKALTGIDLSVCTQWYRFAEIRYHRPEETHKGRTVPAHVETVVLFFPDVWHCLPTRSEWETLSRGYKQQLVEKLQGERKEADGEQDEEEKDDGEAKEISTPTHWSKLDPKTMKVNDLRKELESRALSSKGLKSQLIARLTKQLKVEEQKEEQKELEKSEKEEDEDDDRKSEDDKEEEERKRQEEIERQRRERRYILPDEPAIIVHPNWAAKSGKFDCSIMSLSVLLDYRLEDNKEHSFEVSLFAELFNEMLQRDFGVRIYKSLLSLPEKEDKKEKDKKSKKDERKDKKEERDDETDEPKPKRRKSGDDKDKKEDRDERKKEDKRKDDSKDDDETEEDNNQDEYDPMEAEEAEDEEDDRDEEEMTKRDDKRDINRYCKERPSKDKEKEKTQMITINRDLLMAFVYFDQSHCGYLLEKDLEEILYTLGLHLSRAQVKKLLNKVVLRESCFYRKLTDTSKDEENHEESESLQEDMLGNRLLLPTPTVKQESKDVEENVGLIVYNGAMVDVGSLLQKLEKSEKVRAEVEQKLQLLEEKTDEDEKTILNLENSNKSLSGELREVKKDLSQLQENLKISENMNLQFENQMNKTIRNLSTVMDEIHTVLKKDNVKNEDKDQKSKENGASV
UniProt Q8ND76: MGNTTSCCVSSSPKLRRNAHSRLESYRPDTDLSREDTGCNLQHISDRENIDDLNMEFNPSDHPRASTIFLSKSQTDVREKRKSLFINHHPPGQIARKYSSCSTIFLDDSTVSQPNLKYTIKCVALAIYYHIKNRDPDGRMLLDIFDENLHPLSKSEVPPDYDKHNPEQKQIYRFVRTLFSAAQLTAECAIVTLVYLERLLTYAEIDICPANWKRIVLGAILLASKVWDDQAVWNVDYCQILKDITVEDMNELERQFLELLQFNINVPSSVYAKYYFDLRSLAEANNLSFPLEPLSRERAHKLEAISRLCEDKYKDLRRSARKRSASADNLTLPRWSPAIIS
UniProt Q8NCF5: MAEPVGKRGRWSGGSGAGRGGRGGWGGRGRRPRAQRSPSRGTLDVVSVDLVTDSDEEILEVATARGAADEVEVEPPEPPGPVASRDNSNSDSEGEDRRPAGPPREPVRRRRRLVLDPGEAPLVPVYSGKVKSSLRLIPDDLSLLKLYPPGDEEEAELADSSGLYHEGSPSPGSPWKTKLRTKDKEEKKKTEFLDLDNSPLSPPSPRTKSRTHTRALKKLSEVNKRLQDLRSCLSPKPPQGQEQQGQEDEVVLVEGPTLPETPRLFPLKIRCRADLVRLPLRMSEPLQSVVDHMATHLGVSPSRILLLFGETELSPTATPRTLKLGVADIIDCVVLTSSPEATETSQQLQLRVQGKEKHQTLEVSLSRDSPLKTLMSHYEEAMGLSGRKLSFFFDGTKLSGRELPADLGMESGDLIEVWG
UniProt Q8NFH3: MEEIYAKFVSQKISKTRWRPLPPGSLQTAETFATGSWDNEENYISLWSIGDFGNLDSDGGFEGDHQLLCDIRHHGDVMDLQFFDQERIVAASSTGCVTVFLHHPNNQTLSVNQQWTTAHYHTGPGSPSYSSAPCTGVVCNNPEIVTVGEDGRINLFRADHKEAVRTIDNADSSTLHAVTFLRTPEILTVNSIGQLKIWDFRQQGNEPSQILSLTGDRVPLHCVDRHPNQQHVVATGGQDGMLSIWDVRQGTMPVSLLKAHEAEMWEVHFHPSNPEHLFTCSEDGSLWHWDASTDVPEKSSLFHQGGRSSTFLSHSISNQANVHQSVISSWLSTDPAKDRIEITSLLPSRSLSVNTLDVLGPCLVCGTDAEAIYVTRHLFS
UniProt Q8NCN4: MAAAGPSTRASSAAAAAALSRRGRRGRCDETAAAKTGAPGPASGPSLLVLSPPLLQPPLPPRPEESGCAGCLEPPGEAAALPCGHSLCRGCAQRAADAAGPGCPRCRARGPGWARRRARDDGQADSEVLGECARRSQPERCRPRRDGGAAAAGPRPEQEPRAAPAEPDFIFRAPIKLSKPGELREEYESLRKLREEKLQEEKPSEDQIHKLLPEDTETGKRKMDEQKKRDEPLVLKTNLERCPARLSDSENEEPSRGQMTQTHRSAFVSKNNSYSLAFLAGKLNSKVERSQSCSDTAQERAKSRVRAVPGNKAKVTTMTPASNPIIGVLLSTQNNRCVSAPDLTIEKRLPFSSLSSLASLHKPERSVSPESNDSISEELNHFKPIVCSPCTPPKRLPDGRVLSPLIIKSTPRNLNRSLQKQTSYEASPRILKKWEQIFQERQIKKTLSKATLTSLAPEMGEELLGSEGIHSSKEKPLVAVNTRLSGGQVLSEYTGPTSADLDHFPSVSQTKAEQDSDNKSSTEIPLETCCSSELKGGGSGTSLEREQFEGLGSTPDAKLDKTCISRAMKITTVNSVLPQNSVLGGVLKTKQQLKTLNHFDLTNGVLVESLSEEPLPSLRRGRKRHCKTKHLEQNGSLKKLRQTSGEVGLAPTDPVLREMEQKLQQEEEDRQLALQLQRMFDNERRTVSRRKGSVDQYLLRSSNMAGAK
UniProt Q8WU90: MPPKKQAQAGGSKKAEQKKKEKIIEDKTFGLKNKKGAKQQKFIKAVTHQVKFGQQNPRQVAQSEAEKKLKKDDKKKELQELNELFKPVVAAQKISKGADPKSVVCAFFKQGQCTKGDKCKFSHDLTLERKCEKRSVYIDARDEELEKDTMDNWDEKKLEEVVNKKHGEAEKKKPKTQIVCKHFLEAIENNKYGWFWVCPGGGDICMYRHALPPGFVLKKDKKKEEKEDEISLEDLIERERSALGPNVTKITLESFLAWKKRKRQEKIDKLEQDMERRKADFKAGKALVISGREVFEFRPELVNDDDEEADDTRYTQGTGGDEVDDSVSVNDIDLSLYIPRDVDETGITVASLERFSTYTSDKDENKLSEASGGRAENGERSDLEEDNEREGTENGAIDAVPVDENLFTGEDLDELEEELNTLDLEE
UniProt Q8NFV4: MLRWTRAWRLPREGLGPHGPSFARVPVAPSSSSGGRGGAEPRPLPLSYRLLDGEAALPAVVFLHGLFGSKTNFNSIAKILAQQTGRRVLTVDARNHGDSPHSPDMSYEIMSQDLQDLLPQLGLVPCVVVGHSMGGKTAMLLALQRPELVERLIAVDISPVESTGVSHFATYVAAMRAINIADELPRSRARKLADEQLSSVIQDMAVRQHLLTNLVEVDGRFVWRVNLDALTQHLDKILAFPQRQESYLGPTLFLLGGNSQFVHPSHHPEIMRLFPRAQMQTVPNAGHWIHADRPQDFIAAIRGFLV
UniProt Q8NCW5: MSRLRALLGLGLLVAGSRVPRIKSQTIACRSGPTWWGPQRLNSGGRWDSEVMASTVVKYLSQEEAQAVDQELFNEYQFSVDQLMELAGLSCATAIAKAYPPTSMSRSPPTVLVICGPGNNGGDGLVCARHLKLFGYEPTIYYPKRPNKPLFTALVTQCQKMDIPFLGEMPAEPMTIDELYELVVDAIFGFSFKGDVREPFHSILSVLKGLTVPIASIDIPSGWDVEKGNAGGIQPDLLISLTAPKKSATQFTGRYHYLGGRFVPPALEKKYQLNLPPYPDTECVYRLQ

The targets below were run with Nc1nc2c(ncn2[C@@H]2O[C@H](COP(=O)(O)OP(=O)(O)OP(=O)(O)O)[C@@H](O)[C@H]2O)c(=O)[nH]1 [guanosine triphosphate] (assay: NP40-soluble protein abundance relative to vehicle (solubility fold change) (ratio); higher = more soluble protein in presence of GTP). Details: concentration: 4mM.
Summary of the method: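 Crude Jurkat lysate, prepared by Dounce homogenisation, was exposed to eight concentrations from 0.1 to 10 mM for 10 min at room temperature and then 3 min at 37 °C. Solubilisation used 0.8% NP40 with benzonase for 60 min at 4 °C, followed by ultracentrifugation and TMT labelling of the supernatant for LC-MS/MS. After vsn normalisation of intensities, each value is the fold change against the detergent-processed vehicle within each replicate, across three independent experiments.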
UniProt Q8N2K0 and related entries was tested, and the NP40-soluble protein abundance was 1.03 ± 0.015. Work on UniProt Q8NI08 and related entries yielded an NP40-soluble protein abundance of 0.907 ± 0.052. Work on UniProt Q8N6G5 and related entries yielded an NP40-soluble protein abundance of 0.871 ± 0.024. UniProt Q8IVS2 gave an NP40-soluble protein abundance of 1.01 ± 0.086. For UniProt Q8IWY9 and related entries, the NP40-soluble protein abundance was 1.02 ± 0.026. Work on UniProt Q8NEC7 and related entries yielded an NP40-soluble protein abundance of 1.06 ± 0.099. Work on UniProt Q8NHU6 and related entries yielded an NP40-soluble protein abundance of 1.04 ± 0.047. UniProt Q8TEH3 and related entries gave an NP40-soluble protein abundance of 0.963 ± 0.2. For DCP2 (UniProt Q8IU60), the NP40-soluble protein abundance was 0.946 ± 0.061. Target LRRC8A (UniProt Q8IWT6) has an NP40-soluble protein abundance of 1.15 ± 0.081. Work on UniProt Q8IX12 and related entries yielded an NP40-soluble protein abundance of 1.08 ± 0.056. UniProt Q8ND76 and related entries was tested, and the NP40-soluble protein abundance was 1.05 ± 0.069. UniProt Q8N4C8 and related entries showed an NP40-soluble protein abundance of 0.966 ± 0.052. For NFATC2IP (UniProt Q8NCF5), the NP40-soluble protein abundance was 0.985 ± 0.12. UniProt Q8NDI1-2|Q8NDI1-3|Q8NDI1 showed an NP40-soluble protein abundance of 0.914 ± 0.095. With NUP43 (UniProt Q8NFH3) the NP40-soluble protein abundance was 1.08 ± 0.058. For PLBD2 (UniProt Q8NHP8), the NP40-soluble protein abundance was 0.954 ± 0.037. Target UniProt Q8IYB5-2|Q8IYB5-3 has an NP40-soluble protein abundance of 0.889 ± 0.079. For RNF169 (UniProt Q8NCN4), the NP40-soluble protein abundance was 1.44 ± 0.19. With ZC3H15 (UniProt Q8WU90) the NP40-soluble protein abundance was 0.955 ± 0.065. With UniProt Q8IXQ5 and related entries the NP40-soluble protein abundance was 1.08 ± 0.17. Target UniProt Q8NFV4 and related entries has an NP40-soluble protein abundance of 1.01 ± 0.027. For UniProt Q8TDY2 and related entries, the NP40-soluble protein abundance was 1.05 ± 0.021. UniProt Q8NBJ5 showed an NP40-soluble protein abundance of 0.909 ± 0.026. Target UniProt Q8NCW5 has an NP40-soluble protein abundance of 0.967 ± 0.085.
